# Test results reported in PubChem BioAssay AID2685 (National Center for Advancing Translational Sciences (NCATS), 2010).
# Some of the results follow. Further columns of the screen follow, without active or inactive calls. The list favours compounds with an active or inconclusive main result. Potencies come from curve fits of mixed quality, noted in brackets.
# Experiment: qHTS Assay for Lipid Storage Modulators in Drosophila S3 Cells;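 as to cell number change: cells counted by Cell Tracker Red CMTPX staining in the red channel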
# Conditions: BODIPY lipid droplet fluorescence, 18-24 h; for cell number change: measured here: cell count max response, cells fed with added oleic acid
# Procedure, shortened: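 Drosophila S3 cells loaded with oleic acid (400 uM, as added) and compounds at several concentrations; lipid droplets imaged by 488-nm laser-scanning cytometry, 500–530 nm intensity and object ratio to cell channel. Percent activity normalized to 20 uM Triacsin C.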
# [1] = measured here: lipid fluorescence (Fed channel) AC50, cells fed with added oleic acid
# [2] = measured here: cell number channel AC50, cells fed with added oleic acid
Compound,cell number change [%],AC50 [1],AC50 [2]
O=C(CSCCO)Nc1cccc2ccccc12,-11.4,,
O=C1N(c2ccccc2)c2ccccc2C1(O)C(F)(F)F (stereo not drawn),7.21,,
O=C(COC(=O)C1CC1)Nc1c(Cl)cccc1C(F)(F)F,3.5,,
Cc1c(C)c2ccc(OCC(=O)N(C)C)c(C)c2oc1=O,-5.83,"29.1 µM [rising, single point]",
CN(c1ccccc1)S(=O)(=O)c1cccc(NC(=O)CSc2nnc(N)s2)c1,0.445,,"2.31 µM [rising, partial curve]"
CCc1c(C)[nH]c2ccc(C)cc2c1=O,11,"29.1 µM [falling, single point]",
COc1ccccc1NC(=O)OCC#CCOC(=O)Nc1ccccc1OC,88.3,"18.4 µM [rising, partial curve]","14.6 µM [rising, partial curve]"
COc1ccc(OC)c(NC(=O)[C@@H]2CCCN2C(=O)c2cccs2)c1,-50,,"29.1 µM [falling, single point]"
Cc1ccc(-c2csc3ncn(Cc4ccc(C(=O)O)cc4)c(=O)c23)cc1C,,,"0.00461 µM [rising, full curve, poor fit]"
CCOc1ccccc1N(CC(=O)N1CCC(C)CC1)S(=O)(=O)c1ccc(C)cc1,4.99,"5.8 µM [falling, full curve, poor fit]",
CCc1ccccc1NC(=O)N[C@H](C(=O)O)C(C)CC (stereo partly drawn),-92.9,,"29.1 µM [falling, single point]"
O=S1(=O)CCO[C@H]2Cc3ccccc3[C@H]2N1Cc1ccccc1F,-5.18,,"6.51 µM [rising, partial curve, poor fit]"
O=Cc1cc2ccccc2nc1SCCCF,-14,"3.26 µM [falling, partial curve]","0.82 µM [falling, single point]"
CCOCC(=O)Nc1nc2ccc(OC)cc2s1,,"0.82 µM [falling, single point]",
COc1ccc(OCCn2cc(/C=C(\C#N)C(=O)NCc3ccco3)c3ccccc32)cc1,-20.7,,
CC(=O)c1c(C)[nH]c(C(=O)OCC(=O)Nc2sc3c(c2C#N)CCC(C)C3)c1C (stereo not drawn),14.4,"18.4 µM [rising, single point]",
CCOC(=O)c1sc(NCC2CCCO2)nc1C (stereo not drawn),3.06,,
CCNC(=S)N(CCc1c(C)[nH]c2ccc(Cl)cc12)Cc1cccnc1,-11.7,,
CCCCC(=O)Nc1nn(CC(C)C)c2nc3ccccc3cc12,-12.8,"0.461 µM [rising, partial curve]","6.51 µM [rising, single point]"
C/C(=N\N1CCN(c2ccccc2)CC1)c1cccs1,24.4,"6.51 µM [rising, single point]",
CN(C)c1ccc(C(=O)OCC(=O)N2CCOCC2)cc1,,"6.51 µM [rising, single point]","4.11 µM [rising, single point]"

Compound,cell number change [%],AC50 [1],AC50 [2]
CCOC(=O)c1c(C)[nH]c(C)c1C(=O)COC(=O)CCOc1ccccc1OC,-17.4,"0.00461 µM [rising, full curve, poor fit]",
CCCS(=O)(=O)N1CCCC(C(=O)NCCCOCC)C1 (stereo not drawn),13.7,"6.51 µM [rising, partial curve, poor fit]",
O=C1CSC(=S)N1/N=C/c1cc(Br)c(O)c(Br)c1,-91.7,"11.6 µM [falling, partial curve]","18.4 µM [falling, single point]"
CCOc1ccc(NC(=O)CN(C)C(=O)c2c(C)nn(-c3ccccc3)c2Cl)cc1OCC,,"0.116 µM [rising, full curve, poor fit]",
Brc1ccc(-c2nc(-c3cccnc3)no2)o1,-14.5,,
O=c1c2c(n3cnnc3n1C1CCCCC1)-c1ccccc1CC21CCCCC1,18.2,,
O=C(CCNC(=O)c1ccco1)Nc1ccc(OC(F)F)c(Cl)c1,18.7,"6.51 µM [rising, single point]","0.103 µM [rising, full curve, poor fit]"
CCCOC(=O)c1ccc(NC(=O)CCOc2ccccc2)cc1,65.7,"1.3 µM [rising, full curve]","6.51 µM [rising, partial curve]"
OCCN1CCN(Cc2cc(Br)cc(Br)c2O)CC1,-5.6,"29.1 µM [falling, partial curve]",
COc1cccc(NC(=O)CNC(=O)Cn2cnc3sc(C)c(C)c3c2=O)c1,14,"1.64 µM [rising, partial curve, poor fit]",
COc1ccc(-n2c(SCC(=O)Nc3ccc4c(c3)OCO4)nc3ccccc3c2=O)cc1,79.3,"0.092 µM [rising, full curve, poor fit]","0.259 µM [rising, full curve]"
O=C1C2CCCCC2C(=O)N1c1nccs1 (stereo not drawn),5.29,"2.59 µM [rising, full curve]",
CC1CCCN(CCOCCOc2ccccc2-c2ccccc2)C1 (stereo not drawn),-31.8,"1.64 µM [falling, full curve]","0.82 µM [falling, full curve]"
O=C(CSCc1cccc(Cl)c1)N1CCN(Cc2ccc3c(c2)OCO3)CC1,-5.48,"29.1 µM [rising, partial curve]",
N#Cc1cnc2c(-c3ccccc3)c(-c3ccccc3)nn2c1N,110,,
CCC(=O)N(Cc1ccc(C)cc1)Cc1cc2cc3c(cc2[nH]c1=O)OCO3,72.3,"0.326 µM [rising, full curve]","1.84 µM [rising, partial curve, poor fit]"
COc1ccc(CCNC(=O)c2cc(-c3cc(Cl)ccc3O)n[nH]2)cc1OC,-33.3,"29.1 µM [falling, single point]","1.64 µM [falling, partial curve]"
Cn1c(Cc2ccccc2)nnc1SCC(=O)N1CCN(c2ccccc2)CC1,4.99,"0.164 µM [rising, single point]",
CCOCCn1c(CN(Cc2ccccc2)Cc2ccccc2)nc2c1c(=O)n(C)c(=O)n2C,62.4,"6.51 µM [rising, single point]","10.3 µM [rising, partial curve, poor fit]"
COc1ccccc1/C=C1\SC(=S)N(CC(=O)NC2CCS(=O)(=O)C2)C1=O (stereo not drawn),-7.08,"13 µM [rising, partial curve]",
CN1CCN(C(=O)C2CCN(S(=O)(=O)c3ccccc3[N+](=O)[O-])CC2)CC1,-45.4,"0.13 µM [falling, full curve, poor fit]","11.6 µM [falling, partial curve]"

Compound,cell number change [%],AC50 [1],AC50 [2]
COCC(C)n1c(SCC(=O)Nc2cc(C)on2)nc2ccccc2c1=O (stereo not drawn),31.7,,"0.461 µM [rising, full curve]"
Cc1ccc(C(=O)/C=C/c2c[nH]c3ccccc23)cc1,-12.5,,
COc1ccc(NC(=O)CN(C)C(=O)CNC(=O)c2ccc3ccccc3c2)cc1,,"25.9 µM [rising, single point]","6.51 µM [rising, single point]"
COCCc1nc2ccc(C(=O)N(C)Cc3cccc(-n4nc(C)cc4C)c3)cc2o1,19.1,,
Cn1c(=O)cc2c3c(c(N4CCCCC4)ccc31)C(=O)c1ccccc1-2,1.75,,"3.66 µM [rising, partial curve, poor fit]"
Cc1nn(Cc2c(Cl)cccc2Cl)c(C)c1NC(=O)c1cn(-c2ccccc2)nc1-c1ccccc1,,"6.51 µM [falling, single point]",
Cc1ccccc1NC(=O)c1ccc2c(O)c(S(=O)(=O)c3ccccc3)c(=O)[nH]c2c1,8.66,"29.1 µM [falling, single point]",
Cc1cc(NC(=O)c2c(Br)cnn2C)no1,-15.2,"16.4 µM [falling, single point]",
CCc1ccc(S(=O)(=O)NC2CC(C)(C)NC(C)(C)C2)cc1,11.9,,
COc1ccc(-c2nnc(NC(=O)c3ccc(F)cc3)o2)cc1,-37.3,"6.51 µM [falling, partial curve]","29.1 µM [falling, single point]"
CC(=O)Oc1cccc(N2C(=O)C3C4C=CC(C4=C(C)C)C3C2=O)c1 (stereo not drawn),13.9,,
CCCN(C(=O)c1nc2nc(C)cc(C)n2n1)c1c(N)n(Cc2ccccc2)c(=O)[nH]c1=O,-3.7,"1.84 µM [falling, single point]","6.51 µM [falling, single point]"
CC(C)Cc1nc(N2CCOCC2)c(C#N)c2c1CCC2,-28.3,"29.1 µM [falling, single point]",
Nn1c(COc2ccc(Cl)cc2)nc2ccccc2c1=O,-15.1,"0.0291 µM [rising, full curve, poor fit]",
Cc1onc(-c2ccccc2)c1C(=O)c1ccccc1,29.4,"0.103 µM [rising, full curve, poor fit]",
Fc1ccc(CSc2ncnc3scc(-c4ccccc4)c23)cc1,-4.79,"4.11 µM [rising, full curve]",
COCCNC(=S)Nc1ccc(N2CCCCC2)cc1,,"0.731 µM [falling, single point]",
Cc1ccc(S(=O)(=O)n2c([N+](=O)[O-])cnc2C)cc1C,1.2,"1.16 µM [falling, partial curve]",
CCCN(CC(=O)Nc1ccccc1C)C(=O)Cc1n[nH]c(=O)c2ccccc12,10.8,"6.51 µM [falling, single point]",

# No new results follow: entries from further up.
Compound,cell number change [%],AC50 [1],AC50 [2]
Nn1c(COc2ccc(Cl)cc2)nc2ccccc2c1=O,-15.1,"0.0291 µM [rising, full curve, poor fit]",
Cc1onc(-c2ccccc2)c1C(=O)c1ccccc1,29.4,"0.103 µM [rising, full curve, poor fit]",
Fc1ccc(CSc2ncnc3scc(-c4ccccc4)c23)cc1,-4.79,"4.11 µM [rising, full curve]",
